Assay results: PubChem BioAssay AID662 (National Center for Advancing Translational Sciences (NCATS), 2007)
This is one part of the list. These are further read-outs of the screen, such as a control signal, another cell line or another target. No call is given for them. Compounds called inactive in the main read-out are mostly missing here. The note in brackets gives the kind of curve behind each potency; many fits are weak.

Assay: Cell signaling CRE-BLA (Fsk stim)
Conditions: CHO CRE-bla reporter (cAMP response element driving beta-lactamase), forskolin EC10, beta-lactamase ratio; measured here: 460 nm blue channel
How it was run: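 Using CellSensor CRE-bla CHO cells in Opti-MEM with 0.5% dialyzed FBS, compounds were titrated with EC10 NKH 477 for 3 h at 37 °C. CCF4 ratio (460/530 nm) gave %Activity; AC50 derived.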

SMILES	AC50
CCOC(=O)c1c(NC(=O)CNCC(O)CO)sc(C)c1C (stereo not drawn)	15.8 µM [rising, partial curve]
O=C(O)c1cc2nc(-c3ccc(F)cc3)cc(C(F)(F)F)n2n1	15.8 µM [rising, single point]
COc1ccc(OC)c(-c2cc(C(=O)Nc3c(C)nn(Cc4ccccc4C)c3C)no2)c1	2 µM [rising, full curve]
COc1ccc(-c2nc3cnc(OC)nc3n(Cc3cccc(OC)c3)c2=O)cc1	3.16 µM [rising, full curve]
COC(=O)c1ccc(-n2nnnc2SCc2ccccc2OC)cc1	12.6 µM [rising, partial curve]
COc1cccc(-c2nn3c(-c4cccc(C)c4)nnc3s2)c1	5.01 µM [falling, single point]
COCCNc1nc(-c2cccc(OC)c2)nc2ccccc12	7.94 µM [rising, partial curve]
COc1ncc2nc(-c3ccccc3)c(=O)n(CCc3ccccc3)c2n1	10 µM [rising, partial curve]
CCc1ccc2[nH]c(=O)c(CN(Cc3ccc(OC)cc3)Cc3nnnn3CCOC)cc2c1	5.01 µM [rising, single point]
CCc1nc(C)c(C#N)c2cc(OC)c(OC)cc12	0.2 µM [rising, full curve]
Cc1ccc2c(CN3CCN(S(=O)(=O)c4ccc5c(c4)OCCO5)CC3)cc(=O)oc2c1C	25.1 µM [falling, single point]
COc1cccc(Cn2c(=O)c(-c3ccc(Cl)cc3)nc3cnc(N4CCOCC4)nc32)c1	3.98 µM [rising, partial curve]
COc1cc(C(=O)Nc2nnc(CC(=O)N3CCOCC3)s2)cc(OC)c1OC	0.01 µM [falling, full curve]
COc1cc(C(=O)NCc2nnc(SCC(=O)N3CCc4ccccc43)o2)cc(OC)c1OC	15.8 µM [rising, single point]
COCCOC(=O)c1c(C)oc2ccc(OCc3cc(C(=O)OC)oc3C)cc12	15.8 µM [rising, partial curve]
N#Cc1ccc(C23CC4CC(CC(C4)C2)C3)[nH]c1=O	7.94 µM [rising, single point]
N=c1oc2ccc3ccccc3c2cc1-c1nnc2n1CCCCC2	10 µM [rising, partial curve]
CN1C(=O)C(O)(CC(=O)c2cccnc2)c2ccccc21 (stereo not drawn)	0.00398 µM [falling, full curve, poor fit]
COCCNc1cc(-c2ccccc2C(F)(F)F)ncn1	5.01 µM [rising, single point]
CC(C)n1nnnc1SCC(=O)NCc1cccs1	3.98 µM [falling, partial curve]
Cn1c(=O)[nH]c(=O)c2c1nc(CN1CCOCC1)n2CCCc1ccccc1	10 µM [rising, partial curve]
Cc1cc(Nc2ccccc2F)n2nc(C)nc2n1	10 µM [rising, single point]
C#CCSc1nc(-c2cccs2)ccc1C#N	12.6 µM [rising, partial curve]

SMILES	AC50
Cc1cc(C)n(-c2nnc(C)n2NS(C)(=O)=O)n1	0.1 µM [falling, full curve, poor fit]
CCC(=O)c1cc2c(cc1NC(=O)c1cccs1)OCCO2	12.6 µM [rising, partial curve]
c1nc(NCCN2CCOCC2)c2cc(-c3ccc4c(c3)OCO4)ccc2n1	12.6 µM [rising, partial curve]
CSc1nc(NC(C)(C)C)nc(N2CCOCC2)n1	12.6 µM [rising, partial curve]
O=C1c2ccccc2C(=O)N1Cc1nn2c(-c3ccc(Cl)cc3)nnc2s1	6.31 µM [rising, partial curve]
CCc1cccc(Nc2cc(C)nc3nc(C)nn23)c1	10 µM [rising, partial curve]
COc1ccccc1NC(=O)CSc1ccc2nnc(-c3ccncc3)n2n1	20 µM [falling, single point]
COc1cc(C(=O)NC2CCN(Cc3nnnn3Cc3cccs3)CC2)cc(OC)c1OC	20 µM [rising, single point]
C/C=C/Cn1c(SCc2ccc(Cl)cc2)nc2c1c(=O)[nH]c(=O)n2C	2.51 µM [rising, full curve]
COc1ccc(-n2c(=O)c(C)nc3cnc(Nc4ccccc4)nc32)cc1	10 µM [rising, partial curve]
Cc1cc(Nc2ccc(C)c(Br)c2)n2nc(C)nc2n1	12.6 µM [rising, single point]
COc1ncc2nc(-c3ccccc3)c(=O)n(C[C@H]3CCCO3)c2n1	12.6 µM [rising, partial curve]
COc1cccc(-c2nnc(SCC(=O)OC(C)C)n2Cc2ccco2)c1	1 µM [rising, full curve, poor fit]
CCN(CC)CCn1c(-c2ccccc2)nc2c(NCCOC)nc(C)nc21	10 µM [rising, partial curve]
COc1cccc(Cn2c(=O)c(-c3cn(C)c4ccccc34)nc3cncnc32)c1	15.8 µM [rising, partial curve]
OCC(CO)(CO)n1cnnn1	10 µM [falling, partial curve]
COc1ccc(-c2nc3cnc(OC)nc3n(C)c2=O)cc1	15.8 µM [rising, partial curve]
COc1ccc(OC)c(NC(=O)CSc2nc3ccccc3c(=O)n2CCNC(C)=O)c1	12.6 µM [rising, partial curve]
Cn1c(=O)c2cc(S(=O)(=O)NCCC(=O)Nc3ccc(Cl)cc3)ccc2n(C)c1=O	0.1 µM [falling, partial curve]
CCn1c(=O)cc(OCC(=O)NC2CCCCC2)c2ccccc21	12.6 µM [rising, partial curve]
N[C@@H]1CONC1=O	5.01 µM [rising, partial curve]
CCNc1nc(NCC)n2c(SCc3ccc(F)cc3)nnc2n1	6.31 µM [rising, single point]
Cn1nc(-c2ccc(N3CCOCC3)c(NC(=O)COc3ccccc3)c2)c2ccccc2c1=O	0.501 µM [rising, full curve, poor fit]

Entries from the list above that have an aryl thioether with sulfur outside any ring (ten):
SMILES	AC50
COC(=O)c1ccc(-n2nnnc2SCc2ccccc2OC)cc1	12.6 µM [rising, partial curve]
COc1cc(C(=O)NCc2nnc(SCC(=O)N3CCc4ccccc43)o2)cc(OC)c1OC	15.8 µM [rising, single point]
CC(C)n1nnnc1SCC(=O)NCc1cccs1	3.98 µM [falling, partial curve]
C#CCSc1nc(-c2cccs2)ccc1C#N	12.6 µM [rising, partial curve]
CSc1nc(NC(C)(C)C)nc(N2CCOCC2)n1	12.6 µM [rising, partial curve]
COc1ccccc1NC(=O)CSc1ccc2nnc(-c3ccncc3)n2n1	20 µM [falling, single point]
C/C=C/Cn1c(SCc2ccc(Cl)cc2)nc2c1c(=O)[nH]c(=O)n2C	2.51 µM [rising, full curve]
COc1cccc(-c2nnc(SCC(=O)OC(C)C)n2Cc2ccco2)c1	1 µM [rising, full curve, poor fit]
COc1ccc(OC)c(NC(=O)CSc2nc3ccccc3c(=O)n2CCNC(C)=O)c1	12.6 µM [rising, partial curve]
CCNc1nc(NCC)n2c(SCc3ccc(F)cc3)nnc2n1	6.31 µM [rising, single point]

The list goes on:

SMILES	AC50
CCCCn1c(SCC(=O)N2CC(=O)Nc3ccccc32)nnc1-c1ccoc1C	0.00316 µM [falling, full curve, poor fit]
CSc1ccccc1NC(=O)c1c(C)noc1C	12.6 µM [rising, partial curve]
Cc1ccc(CCNC(=O)CCNS(=O)(=O)c2ccc3c(c2)c(=O)n(C)c(=O)n3C)cc1	0.158 µM [falling, full curve, poor fit]
COc1ccccc1NC(=O)Cn1cnc2c(cnn2-c2ccccc2)c1=O	12.6 µM [rising, partial curve]
CC1CCCCN1C(=O)Cn1c(=O)n(CCC(=O)NCc2ccco2)c(=O)c2sccc21 (stereo not drawn)	0.158 µM [falling, full curve]
N/N=C1/CC(=O)NC(=O)N1	3.98 µM [rising, single point]
Cc1nnc(NC(=O)CSc2nnc(Cc3ccccc3)n2-c2ccccc2)s1	12.6 µM [rising, single point]
O=C(CSc1nnc2scc(-c3ccc(Cl)cc3)n12)NCc1ccc2c(c1)OCO2	12.6 µM [rising, partial curve]
CCCCc1cc(=O)oc2cc(OCC(=O)N(CC)CC)c(Cl)cc12	10 µM [rising, partial curve]
Cc1cc(NC(=O)CC(C)(C)C)nc2c1c(=O)oc1ccccc12	3.98 µM [rising, full curve, poor fit]
O=C(CSc1nc2ccsc2c(=O)n1Cc1ccccc1)NCc1ccco1	10 µM [falling, partial curve]
CC(C)CCNC(=O)NC(=O)CSc1nnc(-c2ccccc2Br)o1	3.98 µM [falling, partial curve]
O=C(c1ccco1)N1CCN(c2cc(=O)n(C3CCCCC3)c(=O)[nH]2)CC1	12.6 µM [falling, partial curve]
N#Cc1c(-c2ccccc2)cc(-c2ccco2)c(C#N)c1N	5.01 µM [falling, partial curve]
COc1ccc(-c2cn3cccnc3n2)cc1NC(=O)C1CCCC1	1.26 µM [falling, partial curve, poor fit]
Cn1c(CCNC(=O)c2ccco2)nc2cc(NS(=O)(=O)c3ccccc3)ccc21	0.0158 µM [falling, full curve, poor fit]
CN=C1SC(CC(=O)Nc2sc(C)c(C)c2C(=O)OC)C(=O)N1C (stereo not drawn)	5.01 µM [rising, single point]
CCOc1cc(NC(=O)C2CCCCC2)c(OCC)cc1NC(=O)c1ccco1	3.16 µM [rising, single point]
CCOC(=O)c1c(C)[nH]c(C)c1C(=O)COC(=O)CNC(=O)c1ccc(OCC)cc1	3.16 µM [rising, single point]
O=C1c2ccccc2-c2ncnc3c(N4CCOCC4)cc(N4CCOCC4)c1c23	2.51 µM [rising, full curve]
Cn1c(SCc2ccc(C#N)cc2)nnc1-c1cccc(Cl)c1	0.0501 µM [rising, full curve, poor fit]
Cc1nn(-c2ccccc2)c2c1C1(C(=O)Nc3ccccc31)N1C(=N2)Sc2ccccc21 (stereo not drawn)	12.6 µM [falling, partial curve]

As entered above.
CCCCc1cc(=O)oc2cc(OCC(=O)N(CC)CC)c(Cl)cc12 | AC50: 10 µM [rising, partial curve]
Cc1ccc(CCNC(=O)CCNS(=O)(=O)c2ccc3c(c2)c(=O)n(C)c(=O)n3C)cc1 | AC50: 0.158 µM [falling, full curve, poor fit]
